Laboratory results as given in doi:10.1101/2022.02.05.479222.
No constants are given. Whether binding was seen depends on the method and setting. A result given as binding can be weak or reduced; the word gives no strength. For part of these data: Sequences can lack the tags named with a protein.

Key:
Experiment in all cases: two-hybrid
[1] = target: T1, Centagon 1 (Drosophila melanogaster) (UniProt Q9VI82)
T1 sequence: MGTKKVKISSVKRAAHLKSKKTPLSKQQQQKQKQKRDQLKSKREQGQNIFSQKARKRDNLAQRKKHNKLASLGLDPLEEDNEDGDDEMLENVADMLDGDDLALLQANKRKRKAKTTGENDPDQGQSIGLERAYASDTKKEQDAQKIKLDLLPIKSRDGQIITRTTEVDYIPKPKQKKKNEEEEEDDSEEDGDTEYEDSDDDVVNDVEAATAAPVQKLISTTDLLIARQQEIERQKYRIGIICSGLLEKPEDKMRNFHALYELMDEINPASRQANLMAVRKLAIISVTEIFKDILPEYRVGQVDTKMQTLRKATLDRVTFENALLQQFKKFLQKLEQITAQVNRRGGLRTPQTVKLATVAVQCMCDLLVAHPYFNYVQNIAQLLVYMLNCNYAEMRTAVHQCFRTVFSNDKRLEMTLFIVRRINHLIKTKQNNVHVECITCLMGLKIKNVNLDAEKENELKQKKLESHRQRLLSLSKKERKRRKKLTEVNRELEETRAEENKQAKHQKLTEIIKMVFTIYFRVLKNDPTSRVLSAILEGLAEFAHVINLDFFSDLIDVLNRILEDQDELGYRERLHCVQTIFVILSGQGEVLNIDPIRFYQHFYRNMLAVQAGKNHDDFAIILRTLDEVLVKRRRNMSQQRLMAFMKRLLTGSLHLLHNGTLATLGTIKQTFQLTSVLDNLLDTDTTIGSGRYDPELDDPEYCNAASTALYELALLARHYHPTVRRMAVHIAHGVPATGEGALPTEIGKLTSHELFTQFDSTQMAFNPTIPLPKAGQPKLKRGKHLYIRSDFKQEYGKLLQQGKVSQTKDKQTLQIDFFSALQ

[2] = target: T2, Centagon 3 (Drosophila melanogaster) (UniProt Q9VLK2)
T2 sequence: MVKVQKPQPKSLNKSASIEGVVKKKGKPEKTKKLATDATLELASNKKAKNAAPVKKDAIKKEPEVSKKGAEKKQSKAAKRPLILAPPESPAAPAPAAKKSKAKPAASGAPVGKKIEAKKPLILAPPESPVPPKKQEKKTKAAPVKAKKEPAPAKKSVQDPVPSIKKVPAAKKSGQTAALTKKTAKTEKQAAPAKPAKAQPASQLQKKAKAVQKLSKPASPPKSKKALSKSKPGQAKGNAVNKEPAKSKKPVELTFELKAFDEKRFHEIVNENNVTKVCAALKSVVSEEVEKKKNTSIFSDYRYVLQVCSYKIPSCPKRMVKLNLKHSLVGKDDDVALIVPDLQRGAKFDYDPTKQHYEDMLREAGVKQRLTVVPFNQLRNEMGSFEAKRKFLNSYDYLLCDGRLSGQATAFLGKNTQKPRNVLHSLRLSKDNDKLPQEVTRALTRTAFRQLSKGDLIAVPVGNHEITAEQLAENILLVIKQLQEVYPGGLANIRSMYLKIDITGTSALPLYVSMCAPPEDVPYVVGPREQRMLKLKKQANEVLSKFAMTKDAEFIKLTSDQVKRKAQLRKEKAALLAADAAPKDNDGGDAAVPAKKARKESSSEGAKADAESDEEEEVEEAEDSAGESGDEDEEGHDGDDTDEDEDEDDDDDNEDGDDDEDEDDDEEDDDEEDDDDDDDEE

[3] = target: Centagon 4 (Drosophila melanogaster) (UniProt Q7KVD5)

- binding [1]: binds
- binding [2]: binds
- binding [3]: binds
Substance: Centagon 2 (from UniProt A1Z909)
